Measured values published in US20110064679A1 (priority 2008, published 2011).

Test: Flavor ingredient evaluation (odor and taste)

Q: Which results are given for `O=C(O)CC(=O)C(=O)O` [Oxaloacetic Acid]?
A: flavor imparted: tartness and a mix between a lemon and a lime; odor: pleasant citrus type smell; smallest concentration producing a noticeable flavor: 2 mM; taste on grilled steak (10 mg instead of table salt): very taste pleasing effect; beverage flavor (100 mg added to 8 ounces of water): strong flavor between a lemon and a lime; salad dressing flavor (100 mg in 1 oz. virgin olive oil and 1 oz. apple cider vinegar, vs dressing without): citrusy flavor; beverage flavor compared to water containing both lemon juice and lime juice (100 mg in 8 ounces of water): superior flavor
